Experimental data as given in article PMC6378190.
No constants are given. Whether binding was seen depends on the method and setting. A result given as binding can be weak or reduced; the word gives no strength.

By UniProt entry, the sequences of proteins in these tests, tags left out. Where a name states a change or a piece, a line headed by the entry shows the natural chain unless it says otherwise. Residues count along the entry.
UniProt P10997, residues 34-70: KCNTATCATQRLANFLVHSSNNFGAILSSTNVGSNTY
UniProt Q02818: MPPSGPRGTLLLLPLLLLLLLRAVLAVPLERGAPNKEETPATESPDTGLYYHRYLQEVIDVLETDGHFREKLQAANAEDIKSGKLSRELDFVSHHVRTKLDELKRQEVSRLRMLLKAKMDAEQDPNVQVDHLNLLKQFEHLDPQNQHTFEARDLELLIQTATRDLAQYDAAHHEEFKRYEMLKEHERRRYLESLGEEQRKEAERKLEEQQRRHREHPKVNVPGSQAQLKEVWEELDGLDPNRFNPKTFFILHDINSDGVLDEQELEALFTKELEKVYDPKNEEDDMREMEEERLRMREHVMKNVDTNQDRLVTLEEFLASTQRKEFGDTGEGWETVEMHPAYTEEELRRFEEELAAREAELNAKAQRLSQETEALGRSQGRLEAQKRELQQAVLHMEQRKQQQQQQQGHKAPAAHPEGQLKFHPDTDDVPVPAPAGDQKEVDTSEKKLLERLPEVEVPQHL

Biological target: human islet amyloid polypeptide (hIAPP) (human) (UniProt P10997)
Test: SEC; mtNUCB1 (10 µmol/L) and hIAPP (33 µmol/L) co-incubated at 37°C for 3 hours while stirred; Superdex200 26/60 PG; 20 mmol/L sodium phosphate, pH 7.6, 150 mmol/L NaCl; peaks tested by dot blot with α‐hIAPP and α‐NUCB1 antibodies; both purified

With “Ca^2+‐free sNUCB1 mutant (mtNUCB1) (from UniProt Q02818)” the binding was “binds”.
